Some of these results come from one statement about several compounds together.
Assays:
Plasmopara viticola = test: Activity against Peronospora of grapevines caused by Plasmopara viticola; format: in vivo; conditions: potted vines sprayed with 250 ppm, inoculated next day; visual rating of leaf undersides; untreated plants 90% infected
Phytophthora infestans = format: in vivo; conditions: potted tomato plants sprayed with 250 ppm, infected next day; visual rating after 6 days; untreated plants 95% infected

For `CCCCCCCCc1c(CCC)nc2ncnn2c1N` [I-2, 7-amino-5-n-propyl-6-octyl[1,2,4]triazolo[1,5-a]pyrimidine], the infection (Plasmopara viticola) was “no more than 10%” and the infection (Phytophthora infestans) was “at most 3%”.

From patent publication US20070167463A1 (priority 2004, published 2007)
